PubChem BioAssay AID504808, Drosophila RNAi Screening Center, 2011
The deposit covers about 21,000 reagents; shown is an unselected part of those with a known target gene and a result. In the full data, 18 (0.084%) were called active. 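Raw counts without plate normalisation, one of two replicates; the ratio scores behind the calls were not deposited.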 A plus sign joins genes that one reagent is predicted to hit. Not given: the amount of reagent, the time to read-out.

Purpose: 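Fly genes required to hold E2F transcription in check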 (primary screen)
Cells: Drosophila S2 cells
Reagent: long dsRNA against Drosophila genes
Read-out: 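Firefly luciferase driven by E2F sites, normalised to Renilla luciferase on the same minimal promoter, measured by plate reader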
Direction: E2F firefly: higher = more E2F reporter activity; Renilla normaliser: higher = more normaliser reporter signal
Rule for the call: 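Called active if the normalised E2F reporter went up by over 50%; the cutoff is arbitrary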

| gene | amplicon | E2F firefly, rep 1 | Renilla normaliser, rep 1 | Call |
| --- | --- | --- | --- | --- |
| cdm (cadmus) | DRSC16213 | 67942 | 3060 | inactive |
| CG33630 | DRSC14546 | 1.57e5 | 6772 | inactive |
| CG13305 | DRSC09975 | 1.00e5 | 3786 | inactive |
| CG14857 | DRSC14981 | 1.22e5 | 6832 | inactive |
| CG10646 | DRSC09764 | 52675 | 3758 | inactive |
| Pitslre | DRSC11874 | 73737 | 4042 | inactive |
| SmydA-5 (SET and MYND domain containing, arthropod-specific, member 5) | DRSC04867 | 1.08e5 | 4572 | inactive |
| Rab3GAP1 (RAB3 GTPase activating protein subunit 1) | DRSC00291 | 1.63e5 | 5350 | inactive |
| Rab3GAP1 (RAB3 GTPase activating protein subunit 1) | DRSC00703 | 1.75e5 | 6327 | inactive |
| fun (retired record) | DRSC12300 | 68271 | 3452 | inactive |
| CG30058 + CG34235 + CG34312 | DRSC05401 | 1.44e5 | 4835 | inactive |

Next part, starting with the last 3 of the part before.
| gene | amplicon | E2F firefly, rep 1 | Renilla normaliser, rep 1 | Call |
| --- | --- | --- | --- | --- |
| Rab3GAP1 (RAB3 GTPase activating protein subunit 1) | DRSC00703 | 1.75e5 | 6327 | inactive |
| fun (retired record) | DRSC12300 | 68271 | 3452 | inactive |
| CG30058 + CG34235 + CG34312 | DRSC05401 | 1.44e5 | 4835 | inactive |
| CG4709 | DRSC02772 | 74184 | 3454 | inactive |
| CG15657 | DRSC04248 | 98864 | 3917 | inactive |
| CG31735 | DRSC01518 | 1.36e5 | 5629 | inactive |
| CG34423 + Mthfs | DRSC04088 | 1.08e5 | 4577 | inactive |
| CG11257 | DRSC06068 | 1.43e5 | 5069 | inactive |
| Wsck | DRSC13682 | 94051 | 3266 | inactive |
| CG14693 | DRSC14916 | 1.43e5 | 6829 | inactive |
| Dsor1 (Downstream of raf1) | DRSC18462 | 7362 | 840 | inactive |
| CG13607 | DRSC14610 | 1.22e5 | 5521 | inactive |
| CG42335 | DRSC14597 | 1.46e5 | 7512 | inactive |
| CG42335 | DRSC15892 | 1.31e5 | 6895 | inactive |
| CG11382 | DRSC18624 | 1.20e5 | 5149 | inactive |
| cactin | DRSC20576 | 95172 | 6104 | inactive |
| MFS9 (Major Facilitator Superfamily Transporter 9) | DRSC15560 | 60092 | 3810 | inactive |
| Desat2 (Desaturase 2) | DRSC15919 | 1.38e5 | 5726 | inactive |
| Sec15 (Secretory 15) | DRSC16179 | 83635 | 4473 | inactive |
| ppk9 (pickpocket 9) | DRSC04134 | 1.02e5 | 3808 | inactive |
| ppk9 (pickpocket 9) | DRSC04135 | 1.01e5 | 4648 | inactive |
| TM4SF (Transmembrane 4 superfamily) | DRSC04661 | 86762 | 3515 | inactive |
| Cp110 (Centriolar coiled coil protein 110kDa) | DRSC20630 | 1.57e5 | 5360 | inactive |
| CG9875 | DRSC04585 | 1.03e5 | 4697 | inactive |
| CG31717 | DRSC01121 | 1.35e5 | 6593 | inactive |
| CG1409 | DRSC17910 | 1.07e5 | 4873 | inactive |
